Results are given in words; binding and its absence hold for the method and conditions named. Binding seen in cells or lysates may run through a third protein. Some results given as binding are weak or reduced against the parent protein; the word gives no strength. For some assays here: Tags and fused reporters may be left off the sequences shown.

Chains of the proteins cited; added tags and fusions are not shown. Residues count along the entry.
UniProt O60260: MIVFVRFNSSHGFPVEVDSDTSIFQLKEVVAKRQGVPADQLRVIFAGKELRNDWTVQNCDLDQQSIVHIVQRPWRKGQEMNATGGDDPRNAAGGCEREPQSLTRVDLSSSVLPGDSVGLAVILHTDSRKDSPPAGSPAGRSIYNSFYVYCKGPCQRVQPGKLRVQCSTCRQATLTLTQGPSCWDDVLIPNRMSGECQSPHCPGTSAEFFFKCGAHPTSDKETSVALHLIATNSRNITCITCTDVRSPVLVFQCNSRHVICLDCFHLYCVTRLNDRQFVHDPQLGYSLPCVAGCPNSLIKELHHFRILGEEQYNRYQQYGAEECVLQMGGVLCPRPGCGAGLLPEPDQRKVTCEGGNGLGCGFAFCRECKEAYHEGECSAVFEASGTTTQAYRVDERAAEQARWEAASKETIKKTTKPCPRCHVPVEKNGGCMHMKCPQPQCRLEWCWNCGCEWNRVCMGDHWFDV
UniProt Q00960, residues 27-1482: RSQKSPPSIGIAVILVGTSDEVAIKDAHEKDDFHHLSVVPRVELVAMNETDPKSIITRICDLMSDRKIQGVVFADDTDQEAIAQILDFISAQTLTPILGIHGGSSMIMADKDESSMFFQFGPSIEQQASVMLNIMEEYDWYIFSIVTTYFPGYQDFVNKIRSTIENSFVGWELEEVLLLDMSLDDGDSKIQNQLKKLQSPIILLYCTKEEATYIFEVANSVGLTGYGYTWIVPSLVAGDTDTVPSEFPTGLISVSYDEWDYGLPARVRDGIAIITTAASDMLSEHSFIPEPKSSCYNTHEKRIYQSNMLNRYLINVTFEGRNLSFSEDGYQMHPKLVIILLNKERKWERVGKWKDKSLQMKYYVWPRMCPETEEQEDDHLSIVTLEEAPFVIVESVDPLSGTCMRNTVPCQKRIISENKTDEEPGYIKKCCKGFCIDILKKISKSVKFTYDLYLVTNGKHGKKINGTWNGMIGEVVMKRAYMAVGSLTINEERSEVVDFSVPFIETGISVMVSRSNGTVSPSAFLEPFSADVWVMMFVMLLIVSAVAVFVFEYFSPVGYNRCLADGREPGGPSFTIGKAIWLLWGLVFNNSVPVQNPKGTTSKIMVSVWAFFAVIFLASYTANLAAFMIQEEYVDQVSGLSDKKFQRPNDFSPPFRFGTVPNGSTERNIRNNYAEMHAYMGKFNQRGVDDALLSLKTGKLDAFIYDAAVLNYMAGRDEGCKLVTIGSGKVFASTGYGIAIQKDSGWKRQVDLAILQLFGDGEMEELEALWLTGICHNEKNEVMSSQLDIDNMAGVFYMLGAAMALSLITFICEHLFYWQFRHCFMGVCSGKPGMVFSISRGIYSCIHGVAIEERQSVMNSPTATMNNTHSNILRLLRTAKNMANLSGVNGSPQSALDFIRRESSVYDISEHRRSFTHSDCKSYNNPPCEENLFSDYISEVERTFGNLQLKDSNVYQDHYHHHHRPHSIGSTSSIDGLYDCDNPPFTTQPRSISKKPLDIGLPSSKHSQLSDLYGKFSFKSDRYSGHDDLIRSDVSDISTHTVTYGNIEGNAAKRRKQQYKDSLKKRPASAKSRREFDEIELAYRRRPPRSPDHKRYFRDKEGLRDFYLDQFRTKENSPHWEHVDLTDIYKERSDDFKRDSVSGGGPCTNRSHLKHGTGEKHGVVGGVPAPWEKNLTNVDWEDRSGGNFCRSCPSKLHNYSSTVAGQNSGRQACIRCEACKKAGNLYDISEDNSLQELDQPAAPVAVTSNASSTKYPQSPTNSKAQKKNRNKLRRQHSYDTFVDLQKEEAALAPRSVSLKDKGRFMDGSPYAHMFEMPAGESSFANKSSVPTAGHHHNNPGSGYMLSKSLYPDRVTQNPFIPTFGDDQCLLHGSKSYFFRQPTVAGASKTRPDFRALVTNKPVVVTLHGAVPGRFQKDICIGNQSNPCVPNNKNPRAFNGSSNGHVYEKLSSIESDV
UniProt P19490, residues 19-907: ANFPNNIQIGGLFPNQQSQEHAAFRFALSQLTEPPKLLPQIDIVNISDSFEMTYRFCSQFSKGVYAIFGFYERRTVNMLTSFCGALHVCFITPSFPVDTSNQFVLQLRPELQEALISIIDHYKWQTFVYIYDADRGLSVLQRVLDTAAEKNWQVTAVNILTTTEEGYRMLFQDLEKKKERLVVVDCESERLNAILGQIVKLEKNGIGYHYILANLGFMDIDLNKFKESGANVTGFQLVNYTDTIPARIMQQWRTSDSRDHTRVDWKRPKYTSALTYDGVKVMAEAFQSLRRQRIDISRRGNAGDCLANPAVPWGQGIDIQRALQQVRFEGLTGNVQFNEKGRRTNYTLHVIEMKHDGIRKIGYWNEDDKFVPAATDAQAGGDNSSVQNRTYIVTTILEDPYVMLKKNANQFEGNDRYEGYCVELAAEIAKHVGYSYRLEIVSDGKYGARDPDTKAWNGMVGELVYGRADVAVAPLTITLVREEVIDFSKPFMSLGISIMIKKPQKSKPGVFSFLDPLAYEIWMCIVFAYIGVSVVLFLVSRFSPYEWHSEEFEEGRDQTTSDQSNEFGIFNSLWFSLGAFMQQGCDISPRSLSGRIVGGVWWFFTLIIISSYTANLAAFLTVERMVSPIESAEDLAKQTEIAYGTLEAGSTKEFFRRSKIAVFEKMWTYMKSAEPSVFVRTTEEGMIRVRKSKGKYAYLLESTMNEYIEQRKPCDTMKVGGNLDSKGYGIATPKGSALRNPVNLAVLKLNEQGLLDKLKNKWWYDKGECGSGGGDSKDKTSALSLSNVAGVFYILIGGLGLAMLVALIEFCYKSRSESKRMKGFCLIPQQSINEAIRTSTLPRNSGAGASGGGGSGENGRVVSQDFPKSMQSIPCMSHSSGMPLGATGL
UniProt P19491, residues 22-883: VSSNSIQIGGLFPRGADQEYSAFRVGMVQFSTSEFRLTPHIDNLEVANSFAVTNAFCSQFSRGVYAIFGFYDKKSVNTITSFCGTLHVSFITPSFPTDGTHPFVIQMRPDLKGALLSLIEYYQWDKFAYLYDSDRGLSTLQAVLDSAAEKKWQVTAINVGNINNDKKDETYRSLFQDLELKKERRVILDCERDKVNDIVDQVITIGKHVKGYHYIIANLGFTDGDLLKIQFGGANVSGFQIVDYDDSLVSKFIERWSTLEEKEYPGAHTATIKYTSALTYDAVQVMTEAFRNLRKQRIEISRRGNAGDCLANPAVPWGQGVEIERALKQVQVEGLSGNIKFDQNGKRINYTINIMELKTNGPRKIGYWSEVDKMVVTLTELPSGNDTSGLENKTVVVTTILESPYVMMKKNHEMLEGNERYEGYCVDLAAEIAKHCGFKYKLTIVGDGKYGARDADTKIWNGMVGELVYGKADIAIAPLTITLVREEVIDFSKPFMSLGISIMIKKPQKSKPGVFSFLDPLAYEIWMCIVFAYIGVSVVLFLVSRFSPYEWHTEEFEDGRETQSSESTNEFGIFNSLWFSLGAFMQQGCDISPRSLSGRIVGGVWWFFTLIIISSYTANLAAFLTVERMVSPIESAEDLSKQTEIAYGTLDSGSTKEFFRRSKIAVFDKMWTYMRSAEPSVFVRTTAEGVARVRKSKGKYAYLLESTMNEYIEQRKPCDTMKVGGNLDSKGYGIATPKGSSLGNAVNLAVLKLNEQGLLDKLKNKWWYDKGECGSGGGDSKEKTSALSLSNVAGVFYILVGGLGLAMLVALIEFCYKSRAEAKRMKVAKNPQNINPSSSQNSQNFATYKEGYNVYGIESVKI

One assay addresses Myc-Parkin (UniProt O60260). Kind of assay: co-IP.
A further assay has as its target T1, GFP-Homer1 (UniProt Q9Z214).
T1 sequence: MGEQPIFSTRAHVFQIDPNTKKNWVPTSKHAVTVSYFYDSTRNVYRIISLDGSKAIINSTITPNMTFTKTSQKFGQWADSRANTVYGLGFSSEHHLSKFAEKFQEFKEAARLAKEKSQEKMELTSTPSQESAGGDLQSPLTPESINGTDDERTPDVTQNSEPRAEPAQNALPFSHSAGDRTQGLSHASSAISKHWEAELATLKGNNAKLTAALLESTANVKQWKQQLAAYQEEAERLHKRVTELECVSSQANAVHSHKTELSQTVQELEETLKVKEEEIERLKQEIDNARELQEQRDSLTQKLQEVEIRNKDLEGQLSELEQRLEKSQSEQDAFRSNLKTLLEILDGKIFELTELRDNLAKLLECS
The assay can be described thus: co-IP.

For the substance “GFP-GluN2B (pCI-SEP-GluN2B) (from UniProt Q00960 27-1482) (receptor)”, the binding result with Myc-Parkin is “no binding”. On the same count and under the same terms, next, “GFP-GluA1 (pCI-SEP-GluA1) (from UniProt P19490 19-907) (receptor)”: “no binding”. “GFP-Parkin WT (from UniProt O60260 1-465) (enzyme)”: the binding entry in the assay with GFP-Homer1 is “binds”. For “GFP-GluN1 (pCI-SEP-GluN1) (from UniProt P35439 19-938) (receptor)”, the binding entry with Myc-Parkin is listed as “binds”. As for “GFP-GluA2 (pCI-SEP-GluA2) (from UniProt P19491 22-883) (receptor)”, the binding result with Myc-Parkin is “no binding”.
